Measured values reported in patent US20030091557A1, “Methods and compositions for modulating ACE-2 activity” (priority 2001, published 2003).
Results are given in words; binding and its absence hold for the method and conditions named. Some results given as binding are weak or reduced against the parent protein; the word gives no strength.

B1: ACE-2 binding polypeptide … (Sequence Family VI) (peptide)
peptide: NIFCFDWEPCHFG
B2: ACE-2 binding polypeptide … (Sequence Family I) (peptide)
peptide: SENCQALFCVDF
B3: ACE-2 binding polypeptide … (Sequence Family VI) (peptide)
peptide: YEYCFEWEQCWEK
B4: ACE-2 binding polypeptide … (Sequence Family I) (peptide)
peptide: SPTCRALFCVDF
B5: ACE-2 binding polypeptide … (Sequence Family II) (peptide)
peptide: DDVCYSLIMADYCLDF
B6: ACE-2 binding polypeptide … (Sequence Family III) (peptide)
peptide: GSDCEWVNFTMFQMCISN
B7: ACE-2 binding polypeptide … (Sequence Family VI) (peptide)
peptide: MDFCFDWEECWTN
B8: ACE-2 binding polypeptide …- (Sequence Family III) (peptide)
peptide: DDMCRWYPFASFYMCLF
B9: ACE-2 binding polypeptide … (Sequence Family III) (peptide)
peptide: SNDCVWLQFWGGDMCFLP
B10: ACE-2 binding polypeptide …-- (Sequence Family VI) (peptide)
peptide: PQFCFEWEPCF
B11: ACE-2 binding polypeptide … (Sequence Family IV) (peptide)
peptide: RGWCLDSRCKVF
B12: ACE-2 binding polypeptide … (Sequence Family III) (peptide)
peptide: LYECEWKQFGPVEMCLNF
B13: ACE-2 binding polypeptide … (Sequence Family VI) (peptide)
peptide: VGFCFDWEPCDEL
B14: ACE-2 binding polypeptide … (Sequence Family III) (peptide)
peptide: FDDCQTSWFQGFWLCIDD
B15: ACE-2 binding polypeptide … (Sequence Family VI) (peptide)
peptide: YAMCFDWDECFLG
B16: ACE-2 binding polypeptide … (Sequence Family III) (peptide)
peptide: FHDCSWGPWGPWEICTRL
B17: ACE-2 binding polypeptide … (Sequence Family V) (peptide)
peptide: WPTCLTMDCVYN
B18: ACE-2 binding polypeptide … (Sequence Family III) (peptide)
peptide: DDDCGWIGFANFHLCLHG
B19: ACE-2 binding polypeptide … (Sequence Family II) (peptide)
peptide: YNFCMLIGERDYCLDF
B20: ACE-2 binding polypeptide … (Sequence Family V) (peptide)
peptide: NDVCLNDDCVYG
B21: ACE-2 binding polypeptide … (Sequence Family VI) (peptide)
peptide: FQLCFDWEEECEES
B22: ACE-2 binding polypeptide … (Sequence Family VI) (peptide)
peptide: DYLCFDWEACWLS
B23: ACE-2 binding polypeptide … (Sequence Family III) (peptide)
peptide: SGECNWQQFSGWEICLRD
B24: ACE-2 binding polypeptide … (Sequence Family IV) (peptide)
peptide: RIGCRDSRCNWWAPG
B25: ACE-2 binding polypeptide … (Sequence Family V) (peptide)
peptide: HYNCHTNDCVVL
B26: ACE-2 binding polypeptide … (Sequence Family VI) (peptide)
peptide: YDWCFDWEQCWDQ
B27: ACE-2 binding polypeptide … (Sequence Family III) (peptide)
peptide: NADCEWVNFNHVDLCMWN
B28: ACE-2 binding polypeptide … (Sequence Family IV) (peptide)
peptide: RGFCRDSSCSFP
B29: ACE-2 binding polypeptide … (Sequence Family III) (peptide)
peptide: AWDCEWNLFDSTFFCPGF
B30: ACE-2 binding polypeptide … (Sequence Family VI) (peptide)
peptide: GIFCFEWETCYQA
B31: ACE-2 binding polypeptide … (Sequence Family IV) (peptide)
peptide: HFSCRLPSLDSRCQLW
B32: ACE-2 binding polypeptide … (Sequence Family III) (peptide)
peptide: DDVCENADFAWLGWCMHF
B33: ACE-2 binding polypeptide … (Sequence Family III) (peptide)
peptide: DDHCEWASYWKWDLCLHD
B34: ACE-2 binding polypeptide … (Sequence Family III) (peptide)
peptide: AYLCDWILFDSFEMCLAP
B35: ACE-2 binding polypeptide … (Sequence Family VI) (peptide)
peptide: VYFCFDWEQDCDEM
B36: ACE-2 binding polypeptide … (Sequence Family VI) (peptide)
peptide: IGFCFEWEVCYEG
B37: ACE-2 binding polypeptide … (Sequence Family VI) (peptide)
peptide: WVLCFEWEDCDEK
B38: ACE-2 binding polypeptide … (Sequence Family I) (peptide)
peptide: NRECHALFCMDF
B39: ACE-2 binding polypeptide … (Sequence Family IV) (peptide)
peptide: FNPCRLQSRDSACRFR
B40: ACE-2 binding polypeptide … (Sequence Family IV) (peptide)
peptide: FLFCRLASRDSRCASP
B41: ACE-2 binding polypeptide … (Sequence Family III) (peptide)
peptide: PFECDWGPWTLEMLCGPP
B42: ACE-2 binding polypeptide … (Sequence Family IV) (peptide)
peptide: RGHCRDSRCMMNAPG
B43: ACE-2 binding polypeptide … (Sequence Family IV) (peptide)
peptide: FFPCRALEKDSRCSFF
B44: ACE-2 binding polypeptide … (Sequence Family V) (peptide)
peptide: HLRCMTSDCIHF
B45: ACE-2 binding polypeptide … (Sequence Family III) (peptide)
peptide: HSECRWEWFGRTMICMSF
B46: ACE-2 binding polypeptide … (Sequence Family VI) (peptide)
peptide: FEICFDWEVCHEQ
B47: ACE-2 binding polypeptide … (Sequence Family VI) (peptide)
peptide: YQFCFDWETTCWLD

Molecular target: FLAG-tagged ACE-2 (human) (UniProt Q9BYF1)
Test: phage ELISA, FLAG-ACE-2 on anti-FLAG antibody plate

binding, binds:
B1
B2
B3
B4
B5
B6
B7
B8
B9
B10
B11
B12
B13
B14
B15
B16
B17
B18
B19
B20
B21
B22
B23
B24
B25
B26
B27
B28
B29
B30
B31
B32
B33
B34
B35
B36
B37
B38
B39
B40
B41
B42
B43
B44
B45
B46
B47
